From US20200063100A1 (CRISPR THERAPEUTICS, published 2020) come the findings set out here.

By UniProt entry, the sequences of proteins in these tests, tags left out. Residues count along the entry.
UniProt P20138, 18-259 limits assumed: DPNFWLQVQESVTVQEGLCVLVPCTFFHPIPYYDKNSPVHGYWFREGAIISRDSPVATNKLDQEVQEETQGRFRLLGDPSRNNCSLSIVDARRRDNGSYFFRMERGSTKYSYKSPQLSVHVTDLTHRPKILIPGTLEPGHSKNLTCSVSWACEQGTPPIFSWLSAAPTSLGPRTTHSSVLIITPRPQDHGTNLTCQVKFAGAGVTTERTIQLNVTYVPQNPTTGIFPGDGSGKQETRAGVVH

The experiment deals with biotinylated recombinant human CD33 (human, UniProt P20138 18-259, limits assumed, biotinylated). The experiment can be described thus: flow cytometry, CAR T cells stained with biotinylated antigen. On the technique in general: Flow cytometry measures light scatter and fluorescence of single cells or particles in a stream.

B1: anti-CD33 CAR (41BB costim.), expressed on gene-edited human T cells (other)
chain: EIVLTQSPGSLAVSPGERVTMSCKSSQSVFFSSSQKNYLAWYQQIPGQSPRLLIYWASTRESGVPDRFTGSGSGTDFTLTISSVQPEDLAIYYCHQYLSSRTFGQGTKLEIKGGGGGSGGGGSGGGGSQVQLQQPGAEVVKPGASVKMSCKASGYTFTSYYIHWIKQTPGQGLEWVGVIYPGNDDISYNQKFQGKATLTADKSSTTAYMQLSSLTSEDSAVYYCAREVRLRYFDVWGQGTTVTVSSSAAAFVPVFLPAKPTTTPAPRPPTPAPTIASQPLSLRPEACRPAAGGAVHTRGLDFACDIYIWAPLAGTCGVLLLSLVITLYCNHRNRKRGRKKLLYIFKQPFMRPVQTTQEEDGCSCRFPEEEEGGCELRVKFSRSADAPAYQQGQNQLYNELNLGRREEYDVLDKRRGRDPEMGGKPRRKNPQEGLYNELQKDKMAEAYSEIGMKGERRRGKGHDGLYQGLSTATKDTYDALHMQALPPR
In the case of B1, the binding result is reported as “binds”.
